Laboratory results from PubChem BioAssay AID1671190 (National Center for Advancing Translational Sciences (NCATS), 2021).
Screen size: about 580,000 compounds; about 6,100 (1.1%) were called active. About 15% were inconclusive and are not listed. Calls follow the shape of the dose curve; as a rule, active = well fitted inhibition curve with a large enough effect; inconclusive = small, poorly fitted or top-dose-only effect, or another doubt; inactive = no such curve, though single readings can be large or run the other way. The entries are a selection whose mix differs from that of the whole data set. Entries without a call were filed so in the source. A structure can be active in one record and inactive in another.

Amino acid sequences for entries named in this document (tags omitted).
UniProt P18054, whole entry, looked up: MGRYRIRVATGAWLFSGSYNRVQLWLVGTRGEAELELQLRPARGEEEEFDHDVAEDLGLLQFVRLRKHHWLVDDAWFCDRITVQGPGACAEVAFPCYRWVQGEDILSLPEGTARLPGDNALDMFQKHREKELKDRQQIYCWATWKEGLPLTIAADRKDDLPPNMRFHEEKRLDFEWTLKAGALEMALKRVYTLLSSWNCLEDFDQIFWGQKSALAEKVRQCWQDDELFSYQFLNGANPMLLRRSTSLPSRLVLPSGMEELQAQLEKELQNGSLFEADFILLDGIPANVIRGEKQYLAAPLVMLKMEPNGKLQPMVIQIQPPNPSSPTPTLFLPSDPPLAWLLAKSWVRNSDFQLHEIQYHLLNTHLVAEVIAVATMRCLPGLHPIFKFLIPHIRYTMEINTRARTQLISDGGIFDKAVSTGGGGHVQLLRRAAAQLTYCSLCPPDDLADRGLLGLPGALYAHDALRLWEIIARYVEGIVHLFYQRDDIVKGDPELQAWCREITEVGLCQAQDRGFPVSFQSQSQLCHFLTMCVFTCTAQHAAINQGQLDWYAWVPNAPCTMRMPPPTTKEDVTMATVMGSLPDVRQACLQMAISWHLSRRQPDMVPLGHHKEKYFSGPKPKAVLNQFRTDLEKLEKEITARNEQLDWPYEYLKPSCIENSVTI

target: Polyunsaturated fatty acid lipoxygenase ALOX12 (Homo sapiens) (UniProt P18054); test: Primary qHTS assay for inhibitors of human arachidonate 12S-lipoxygenase (ALOX12): Round 2; conditions: purified 12hLO, xylenol orange hydroperoxide absorbance; activity change, negative = inhibition: at 0.00344 µM (top of the series)
In short: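 Purified human 12hLO (150 nM final) in 25 mM Hepes, 0.01% Triton X-100, pH 7.0 was preincubated 15 min at room temperature with compound. Then 40 uM arachidonic acid was added, 30 min. Hydroperoxide was read by Fe-XO absorbance ratio 573/405 nm.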
% is scaled to controls: 0 for no effect and ±100 for the full control effect; potency is read from the fitted curve at half-maximal effect.

Structure (SMILES)	Potency	activity change, negative = inhibition
O=C(Nc1nc(-c2ccc(Cl)cc2)cs1)NC1CCCCC1	active: 50.1 µM	
Cc1ccc(S(=O)(=O)N2CCN(C(=O)c3cc4cc(C)ccc4nc3C)CC2)cc1	active: 39.8 µM	
CC(=O)OCC(=O)[C@@]1(O)CC[C@H]2[C@@H]3CCC4=CC(=O)C=C[C@]4(C)[C@H]3[C@@H](O)C[C@@]21C		27.4%
Oc1c(Br)cc(Br)cc1CNc1cccc2cccnc12	active: 14.1 µM	
CCC(C(=O)NCc1ccc(C)cc1)c1ccccc1 (configuration not stated)	active: 25.1 µM	
Cc1c(Nc2ncccc2C(=O)O)cccc1C(F)(F)F		14.8%
CC[C@H](c1ccc(O)cc1)[C@@H](CC)c1ccc(O)cc1		50.5%
CCC(=O)N1Cc2ccccc2CC2(CCN(CCc3ccc(C)cc3)CC2)C1	active: 35.5 µM	
O=C(O)c1cc(=O)c2c(OCC(O)COc3cccc4oc(C(=O)O)cc(=O)c34)cccc2o1		26.9%
C[C@H]1c2cccc(O)c2C(O)=C2C(=O)[C@]3(O)C(O)=C(C(N)=O)C(=O)[C@@H](N(C)C)[C@@H]3[C@@H](O)[C@@H]21		-13.8%
Oc1c(Cl)cc(Cl)cc1Sc1cc(Cl)cc(Cl)c1O		-44.8%
C=CCc1ccccc1OCC(O)CNC(C)C (configuration not stated)		28.3%
CCCCOc1ccc(CC(=O)NO)cc1		-10.8%
CC(=O)OC(C)C[N+](C)(C)C (configuration not stated)		-5.16%
Cc1ccc(O)c([C@H](CCN(C(C)C)C(C)C)c2ccccc2)c1		12.9%
O=C(CN1CCN(Cc2ccc3c(c2)OCO3)CC1)N1c2ccccc2Sc2ccccc21	active: 0.794 µM	19.5%
O=C(/C=C/c1ccccc1)OCc1ccccc1		-59.3%
CCOC(=O)C(=O)c1csc(NC=O)n1		6.16%
CN(C)CCC(c1ccccc1)c1ccccn1 (configuration not stated)		-7.65%
O=C1NC(c2ccccc2)(c2ccccc2)C(=O)N1COP(=O)(O)O		9.71%
NC(=O)c1cc(-c2csc(NCCc3ccccc3)n2)ccc1O	active: 31.6 µM	
Cc1cc(-n2nc3ccc(Cl)cc3n2)c(O)c(C(C)(C)C)c1		-27.5%

Structure (SMILES)	Potency	activity change, negative = inhibition
O=C(O)c1c(O)c(-c2ccccc2)nc2ccccc12		-31.5%
CC[C@]1(O)C[C@@H]2CN(CCc3c([nH]c4ccccc34)[C@@](C(=O)OC)(c3cc4c(cc3OC)N(C)[C@H]3[C@@](O)(C(=O)OC)[C@H](OC(C)=O)[C@]5(CC)C=CCN6CC[C@]43[C@@H]65)C2)C1		-1.8%
O=P(O)(O)C(O)(Cc1cccnc1)P(=O)(O)O		52.9%
COc1ccc(-n2nc(CCC(=O)N(C)O)cc2-c2ccc(Cl)cc2)cc1		-12.5%
CCC(c1cccs1)N1C(=O)[C@H]2CN(S(=O)(=O)c3cccc(Cl)c3)C[C@H]2C1=O (some centres not stated)	active: 31.6 µM	
CC(C)NC(=O)c1ccc(C=O)cc1		-82%
CCCC(C(=O)OCCN(CC)CC)(c1ccccc1)c1ccccc1		2.32%
NC(=O)NO		-26.5%
Clc1ccccc1C(c1ccccc1)(c1ccccc1)n1ccnc1		-7.78%
CNC1(C)C2CCC(C2)C1(C)C (configuration not stated)		-5.87%
COc1ccc(Br)c2oc(S)cc(=O)c12	active: 6.31 µM	
COc1ccccc1-c1cncnc1Nc1ccccc1	active: 39.8 µM	
O=C(O)CCc1nc2ccccc2[nH]1		-1.79%
CCCc1nc(C)c2c(=O)[nH]c(-c3cc(S(=O)(=O)N4CCN(CC)CC4)ccc3OCC)nn12		-28.7%
O=C(Cc1ccccc1)Nc1sc2c(c1C(=O)Nc1ccc(Cl)cc1)CCCC2	active: 15.8 µM	
CC(C)(Oc1ccc(C2CC2(Cl)Cl)cc1)C(=O)O (configuration not stated)		-18.9%
O=C(O)COc1ccc2c(=O)c(Oc3ccc(Cl)cc3)coc2c1	active: 12.6 µM	
CCOC(=O)c1c(N)sc(N)c1C(=O)OCC	active: 50.1 µM	
CN(CC1(C)CCCO1)S(=O)(=O)c1ccc(Cl)c(S(N)(=O)=O)c1 (configuration not stated)		8.4%
CC1CCN(CCCC(=O)c2ccc(F)cc2)CC1		23.9%
Nc1ccc(S(N)(=O)=O)cc1		2.72%
COc1ccc(-c2cn(-c3ccc(C)c(C)c3)c(=S)[nH]2)cc1OC	active: 28.2 µM	

Structure (SMILES)	Potency	activity change, negative = inhibition
COc1ccc(S(=O)(=O)N2CCN(C(=O)C3COc4ccccc4O3)CC2)cc1 (configuration not stated)	active: 39.8 µM	
Cc1ccc(CCn2c3c(c4cc(Cl)ccc42)CN(C)CC3)cn1		-31.5%
CSc1ccc(/C=C2/C(C)=C(CC(=O)O)c3cc(F)ccc32)cc1		14.1%
CCOC(=O)c1ccc(C#Cc2ccc3c(c2)C(C)(C)CCS3)nc1		-9.1%
CCC(C)(C)c1ccc(CC(C)CN2C[C@@H](C)O[C@@H](C)C2)cc1 (some centres not stated)		11.5%
Nc1nc(N)nc(-c2cc(Cl)ccc2Cl)n1		5.9%
O=C(O)/C=C/c1cc(Br)c(-c2ccc(Cl)cc2Cl)o1	active: 39.8 µM	
Oc1ccc(C(O)CNCCCCCCNCC(O)c2ccc(O)c(O)c2)cc1O (configuration not stated)		23.4%
COc1ccc2[nH]c(S(=O)Cc3ncc(C)c(OC)c3C)nc2n1 (configuration not stated)		36.9%
CC(C)c1nc(CN(C)C(=O)N[C@H](C(=O)N[C@@H](Cc2ccccc2)C[C@H](O)[C@H](Cc2ccccc2)NC(=O)OCc2cncs2)C(C)C)cs1		7.49%
CCc1ccc(NC(=S)N(Cc2ccc(Cl)cc2)Cc2ccc(C(=O)O)cc2)cc1	active: 39.8 µM	
O=C(NCC1CCCCN1)c1cc(OCC(F)(F)F)ccc1OCC(F)(F)F (configuration not stated)		-7.71%
CC1CCc2cc(F)cc3c(=O)c(C(=O)O)cn1c23 (configuration not stated)		31.8%
CC(/C=C1\SC(=S)N(NS(=O)(=O)c2ccc(C)cc2)C1=O)=C\c1ccccc1	active: 15.8 µM	
CCOc1ccc(NC(=O)c2nnn3c2COC(c2ccc(Cl)cc2)C3)cc1 (configuration not stated)	active: 44.7 µM	
CCOC(=O)C1=C(C)NC(C)=C(C(=O)OC)C1c1cccc([N+](=O)[O-])c1 (configuration not stated)		-3.54%
COc1cc2c(c(OC)c1OC)-c1ccc(OC)c(=O)cc1[C@@H](NC(C)=O)CC2		25.6%
COc1ccc(/C=C2/CCn3c2nc2cc(Cl)ccc2c3=O)cc1O	active: 1.78 µM	
CCCCCCCC(=O)[O-].CCCCCCCC(=O)[O-].[Zn+2]		9.95%
S=c1[nH]cc2cnccn12	active: 8.91 µM	
CNC(=O)c1ccccc1Sc1ccc2c(/C=C/c3ccccn3)n[nH]c2c1		-12.2%
CC(CN1c2ccccc2Sc2ccccc21)N(C)C (configuration not stated)		5.48%

Structure (SMILES)	Potency	activity change, negative = inhibition
N#CC(C#N)=C1NC(N)=C(C#N)C(c2ccccc2)=C1C#N	active: 6.31 µM	
COc1ccc(/C(C)=C/C(=O)O)c(OC)c1		-34.9%
Cc1ccc(C=Nc2ccc(Nc3ccccc3)cc2)s1	active: 39.8 µM	
CN(C)[C@@H](CCOc1cccc2ccccc12)c1ccccc1		-8.65%
CCCC(CCC)C(=O)O		21.8%
CC(C)[N+](C)(C)CC(O)COc1cccc2ccccc12 (configuration not stated)		-4.89%
COc1cc(N)c(Cl)cc1C(=O)NC1CCN(CCCOc2ccc(F)cc2)CC1OC (configuration not stated)		1.35%
CNC(=O)c1c(I)c(NC(C)=O)c(I)c(C(=O)O)c1I		5.45%
S=C(NCCCc1ccccc1)Nc1ccc(Cl)cc1	active: 39.8 µM	
Cn1c(=O)c2[nH]c(Br)nc2n(C)c1=O		10.4%
CC(C)(C)NC(=O)[C@@H]1CN(Cc2cccnc2)CCN1C[C@@H](O)C[C@@H](Cc1ccccc1)C(=O)N[C@H]1c2ccccc2C[C@H]1O		-12.2%
COc1ccc2cc1Oc1ccc(cc1)C[C@H]1c3c(cc4c(c3Oc3cc5c(cc3OC)CCN(C)[C@@H]5C2)OCO4)CCN1C		-1.84%
Cn1c(=O)c2c(ncn2C)n(C)c1=O		19.9%
Cc1ccc(NC(=S)NNC(=S)Nc2ccc(C)cc2C)cc1	active: 35.5 µM	
O=C(CCCN1CCC(O)(c2ccc(Cl)cc2)CC1)c1ccc(F)cc1		-18.8%
COc1cc(C(=O)N2CCCCCCC2)cc(OC)c1OC		-17.5%
O=C(O)C(=O)Nc1cccc(-c2nn[nH]n2)c1		15.3%
COc1ccc(CN(CCN(C)C)c2ncccn2)cc1		22.4%
Cc1cc2c(OCC(CNC(C)(C)C)OC(=O)c3ccccc3)cccc2[nH]1 (configuration not stated)		-63.2%
Cc1cc(Cl)ccc1NNC(=O)c1c(C)noc1C	active: 31.6 µM	
NCC(=O)CCC(=O)O		19.5%
NCCS		3.69%

Structure (SMILES)	Potency	activity change, negative = inhibition
COCCOC(=O)C1=C(C)NC(C)=C(C(=O)OC(C)C)C1c1cccc([N+](=O)[O-])c1 (configuration not stated)		-7.72%
CCCOc1ccc2c(c1)CC[C@@H]1[C@@H]2CC[C@]2(C)C(OC)CC[C@@H]12 (some centres not stated)		-13.5%
CN1C(C(=O)Nc2ccccn2)=C(O)c2ccccc2S1(=O)=O		-3.97%
COc1c(C)c2c(c(O)c1C/C=C(\C)CCC(=O)OCCN1CCOCC1)C(=O)OC2		-0.597%
Cc1ccc(C(=O)O)cc1NC(=S)NC(=O)c1ccc([N+](=O)[O-])c(C)c1	active: 20 µM	
O=C(O)c1ccc(-n2nc(-c3ccccc3O)nc2-c2ccccc2O)cc1		-0.828%
C[C@]12CCC(=O)C=C1C=C[C@@H]1[C@@H]2CC[C@@]2(C)[C@H]1CC[C@@]21CCC(=O)O1		16.2%
COc1ccc2ccccc2c1C1CC(=O)N2CN(C3CCCCC3)CSC2=C1C#N (configuration not stated)	active: 17.8 µM	
C=CCc1ccccc1OCC(=O)OCCNC(=O)c1cccnc1	active: 39.8 µM	
CCCNC(C)C(=O)Nc1c(C)csc1C(=O)OC (configuration not stated)		-12.8%
Cc1ccccc1CC(=O)N1CCC2(CC1)NC(=O)N(c1cccc(F)c1)N2	active: 2.82 µM	
COc1cccc(N(C)C(=S)Oc2ccc3c(c2)CCCC3)n1		-22%
CN(C)c1nccc(N(Cc2ccccc2)Cc2ccccc2)c1C#N	active: 3.16 µM	
Nc1nc(N)c(-c2ccccc2)s1		-14.3%
Cc1cc(C(C#N)c2ccc(Cl)cc2)c(Cl)cc1NC(=O)c1cc(I)cc(I)c1O (configuration not stated)		-0.924%
NCCC(O)(P(=O)(O)O)P(=O)(O)O		9.8%
Cc1onc(-c2ccccc2)c1C(=O)Cl		-7.59%
COc1ccc([C@@H]2Sc3ccccc3N(CCN(C)C)C(=O)[C@@H]2OC(C)=O)cc1		-25.8%

Reprinted from the entries so far for reference:
Structure (SMILES)	Potency	activity change, negative = inhibition
CCCNC(C)C(=O)Nc1c(C)csc1C(=O)OC (configuration not stated)		-12.8%
Cc1ccccc1CC(=O)N1CCC2(CC1)NC(=O)N(c1cccc(F)c1)N2	active: 2.82 µM	
COc1cccc(N(C)C(=S)Oc2ccc3c(c2)CCCC3)n1		-22%
